In patent US20100041900A1, “Isolation of lactam compound from adlay bran and its use on anti-proliferative cancer cells” (KUANG TA FOODS CO., LTD, priority 2008, published 2010):
Some of these results come from one statement about several compounds together.

Tested on: A549 (human lung cancer)
Assay: MTT assay, growth inhibition of A549 cells
Format: cell-based
Conditions: summary range over all five compounds and all three cell lines A549, HT-29, COLO 205
Protocol: The cell lines A549 (human lung cancer), HT-29 (human colon carcinoma), and COLO 205 (human colon carcinoma) were obtained from the American Type Culture Collection (ATCC) (Rockville, Md.). These cell lines were maintained in DMEM containing 10% heat-inactivated fetal bovine serum, 100 units/mL of penicillin and 100 μg/mL of streptomycin, and were kept at 37° C. in a 5% CO2 incubator.
MTT assay was performed as described by Hansen et al. (Hansen et al., J. Immunol. Methods 119, 203-210, 1989). A549 (1.5×10^3 cells/well), HT-29 (2×10^3 cells/well), and COLO 205 (3×10^3 cells/well) were seeded in 96-well plates and grown overnight. Cells were then incubated in 10% FBS medium containing different amounts of adlay bran subfractions for 48 hours. At the end of incubation, media were replaced with 100 μL of reagent (MTT, 1 mg/mL) and incubated in a 5% CO2 incubator at 37° C. for another 2 h. The medium was then discarded and 100 μL of DMSO was added to each well. The absorbance was measured at 570 nm by scanning with a micro-plate reader (Molecular Devices, Calif.). Each sample was analyzed six times, and the values were averaged. For the determination of IC50 (the concentration of each substance required to inhibit cell proliferation by 50%), each sample was measured at five different concentrations by the MTT test. […]

SMILES: CC1OC(=O)C[C@@]12C(=O)Nc1ccccc12 (stereo partly shown) [Compound 3, coixspirolactam C]
- IC50 values against A549, HT-29 and COLO 205 cells (overall range): 28.6 to 72.6 µg/mL
